We go through three compounds from patent US9035054B2, “Dinitroxide-type biradical compounds optimized for dynamic nuclear polarization (DNP)” (Universite D'Aix-Marseille, priority 2009, dated 2015).

Where two headings read alike, the source gives them in different places.

For series [1] the following is noted: cited from earlier work; for polarization enhancement factor ε: 90 K, field of 5 T, irradiation strength 1.5 W, 13C urea.
A short description of series [2]: DNP with polarizing agent, polarization of 13C urea (5 T, 93 K, MAS). The note with it: for growth factor ε+ at stationary state (positive polarization): irradiation strength on the order of 2.5 W, 1H polarization detected via 13C urea; for ε+ when the irradiation strength tends towards infinity: extrapolated to infinite irradiation strength (FIG. 7).

For the compound `CC1(C)CCCC(C)(C)N1[O]` [TEMPO], the “polarization enhancement factor ε” value in series [1] (polarizing agent 40 mM) is on record as 40±5. In addition, the “augmentation factors of polarization, ε” value in series [1] (TEMPO concentration on the order of 40 mM, 13C urea nucleus) is recorded as roughly 40.
As for bis-TEMPO-bis-Ketal [bTbK], the “growth factor ε+ at stationary state (positive polarization)” value in series [2] (93 K, 5 T) is 250. Also, the “polarization growth time constant” value in series [2] (93 K, 5 T, 9 mM bTbK, 2 M 13C-urea in d6-DMSO/D2O/H2O (77/17/6)) turned out to be 7 s. The “ε+ when the irradiation strength tends towards infinity” value in series [2] is recorded as 325.
As to “1-(TEMPO-4-oxy)-3-(TEMPO-4-amino) propan-2-ol [TOTAPOL]”, the “polarization enhancement factor ε” value in series [1] (polarizing agent 5 mM) is 190±20. For the same compound, the “growth factor ε+ at stationary state (positive polarization)” value in series [2] (93 K, 5 T) is given as 180. The “ε+ when the irradiation strength tends towards infinity” value in series [2] is reported as 230.
